Assay [1] has as its target T1, Sis1_(1-81), J-domain (1-72) and part of the GF region (73-81) of Sis1 (S. cerevisiae) (UniProt P25294).
T1 sequence: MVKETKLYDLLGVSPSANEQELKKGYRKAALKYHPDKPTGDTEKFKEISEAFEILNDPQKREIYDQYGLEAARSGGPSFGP
The assay can be described thus: NMR titration.

Assay [2] deals with T2, Sis1_(1-352), full-length class B J-domain protein Sis1 of S. cerevisiae (S. cerevisiae) (UniProt P25294).
T2 sequence: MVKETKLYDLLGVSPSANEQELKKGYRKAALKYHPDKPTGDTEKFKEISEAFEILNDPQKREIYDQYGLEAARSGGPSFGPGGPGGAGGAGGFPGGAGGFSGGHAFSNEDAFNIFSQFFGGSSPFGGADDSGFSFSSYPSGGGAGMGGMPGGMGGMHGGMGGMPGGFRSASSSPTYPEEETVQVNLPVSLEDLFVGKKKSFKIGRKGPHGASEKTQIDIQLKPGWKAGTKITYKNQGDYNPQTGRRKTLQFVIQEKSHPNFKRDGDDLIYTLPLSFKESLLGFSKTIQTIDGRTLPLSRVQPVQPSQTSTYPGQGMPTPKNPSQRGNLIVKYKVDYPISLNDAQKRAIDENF
The assay can be described thus: NMR titration.

The values below come from publication doi:10.1101/2022.11.26.517237.

Results are given in words; binding and its absence hold for the method and conditions named. Some results given as binding are weak or reduced against the parent protein; the word gives no strength.

With GPTIEEVD [GPTIEEVD peptide, C-terminal EEVD motif of HSP70], the binding result in assay [1] and in assay [2] was “binds weakly” each time.

B1: Sis1_(1-81), J-domain (1-72) and part of the GF region (73-81) of Sis1 (domain or fragment, UniProt P25294 1-81)
chain: T1 sequence
As for B1, in assay [1], the binding entry is “no binding”.
